Data reported in the supplement of paper PMC10849652.
Some of the results follow.

The chains behind the UniProt entries cited, without tags or fusion partners. Where a name states a change or a piece, a line headed by the entry shows the natural chain unless it says otherwise.
UniProt O60232: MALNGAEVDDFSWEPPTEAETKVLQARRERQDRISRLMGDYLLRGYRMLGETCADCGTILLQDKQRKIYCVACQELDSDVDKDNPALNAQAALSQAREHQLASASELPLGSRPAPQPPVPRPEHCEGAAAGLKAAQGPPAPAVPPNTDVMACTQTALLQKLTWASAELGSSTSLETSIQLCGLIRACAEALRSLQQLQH
UniProt Q8ND25: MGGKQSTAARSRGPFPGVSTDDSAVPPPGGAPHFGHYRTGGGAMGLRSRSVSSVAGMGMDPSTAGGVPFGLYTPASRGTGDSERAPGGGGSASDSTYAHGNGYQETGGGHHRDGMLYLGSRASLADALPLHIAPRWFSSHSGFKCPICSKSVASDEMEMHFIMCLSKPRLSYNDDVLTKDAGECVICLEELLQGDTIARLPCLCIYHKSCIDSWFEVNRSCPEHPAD
UniProt Q8NHG8: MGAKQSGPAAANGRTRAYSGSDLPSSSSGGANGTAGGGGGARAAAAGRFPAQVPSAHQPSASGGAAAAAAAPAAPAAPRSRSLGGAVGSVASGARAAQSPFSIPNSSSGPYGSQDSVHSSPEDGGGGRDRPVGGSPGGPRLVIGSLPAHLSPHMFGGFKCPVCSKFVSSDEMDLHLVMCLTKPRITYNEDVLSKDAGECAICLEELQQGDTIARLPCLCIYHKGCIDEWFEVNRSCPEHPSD
UniProt O75312: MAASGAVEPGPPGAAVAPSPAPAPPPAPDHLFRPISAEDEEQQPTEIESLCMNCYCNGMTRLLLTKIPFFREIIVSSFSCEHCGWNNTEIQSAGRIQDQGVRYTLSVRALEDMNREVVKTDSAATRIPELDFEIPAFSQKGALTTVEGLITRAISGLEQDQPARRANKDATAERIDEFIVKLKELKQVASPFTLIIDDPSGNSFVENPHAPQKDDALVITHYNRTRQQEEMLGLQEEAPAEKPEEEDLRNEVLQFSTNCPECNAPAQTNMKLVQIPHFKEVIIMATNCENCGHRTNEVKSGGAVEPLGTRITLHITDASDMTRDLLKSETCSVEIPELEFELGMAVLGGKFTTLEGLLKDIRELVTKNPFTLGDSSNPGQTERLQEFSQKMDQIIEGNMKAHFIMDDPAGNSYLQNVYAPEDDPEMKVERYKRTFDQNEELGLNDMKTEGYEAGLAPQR
UniProt O95218: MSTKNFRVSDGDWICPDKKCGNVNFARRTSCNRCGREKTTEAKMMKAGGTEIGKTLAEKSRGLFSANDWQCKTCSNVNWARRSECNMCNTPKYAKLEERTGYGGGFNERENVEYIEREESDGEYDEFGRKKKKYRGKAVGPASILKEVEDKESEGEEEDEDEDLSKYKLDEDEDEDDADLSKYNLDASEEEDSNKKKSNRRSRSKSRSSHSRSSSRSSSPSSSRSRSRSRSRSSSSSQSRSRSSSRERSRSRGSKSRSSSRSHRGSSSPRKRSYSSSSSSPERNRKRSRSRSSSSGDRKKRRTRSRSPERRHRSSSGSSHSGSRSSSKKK
UniProt Q19AV6: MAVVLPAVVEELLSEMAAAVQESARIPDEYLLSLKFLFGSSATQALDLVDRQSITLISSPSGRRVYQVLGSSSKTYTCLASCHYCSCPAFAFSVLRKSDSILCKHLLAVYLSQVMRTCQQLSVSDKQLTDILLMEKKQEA
UniProt O43264: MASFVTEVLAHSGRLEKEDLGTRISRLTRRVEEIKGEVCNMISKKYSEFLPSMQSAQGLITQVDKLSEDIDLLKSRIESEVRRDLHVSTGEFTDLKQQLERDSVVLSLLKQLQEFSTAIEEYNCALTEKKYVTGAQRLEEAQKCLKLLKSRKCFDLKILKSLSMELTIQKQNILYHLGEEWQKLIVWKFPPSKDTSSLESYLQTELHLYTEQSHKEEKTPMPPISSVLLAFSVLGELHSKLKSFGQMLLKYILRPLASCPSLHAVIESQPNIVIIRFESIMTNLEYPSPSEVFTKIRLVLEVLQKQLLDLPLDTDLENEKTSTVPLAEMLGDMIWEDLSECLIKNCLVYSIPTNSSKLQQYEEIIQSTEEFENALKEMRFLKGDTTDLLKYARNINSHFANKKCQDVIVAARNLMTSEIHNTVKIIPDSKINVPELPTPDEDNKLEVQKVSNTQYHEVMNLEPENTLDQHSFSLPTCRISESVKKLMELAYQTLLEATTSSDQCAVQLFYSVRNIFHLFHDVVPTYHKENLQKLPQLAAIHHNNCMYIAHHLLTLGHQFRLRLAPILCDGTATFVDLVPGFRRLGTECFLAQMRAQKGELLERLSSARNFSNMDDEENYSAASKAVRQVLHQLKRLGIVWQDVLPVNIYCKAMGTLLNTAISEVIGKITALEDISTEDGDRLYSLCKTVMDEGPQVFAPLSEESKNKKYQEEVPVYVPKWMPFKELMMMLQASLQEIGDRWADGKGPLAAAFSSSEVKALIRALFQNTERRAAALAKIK
UniProt Q16670: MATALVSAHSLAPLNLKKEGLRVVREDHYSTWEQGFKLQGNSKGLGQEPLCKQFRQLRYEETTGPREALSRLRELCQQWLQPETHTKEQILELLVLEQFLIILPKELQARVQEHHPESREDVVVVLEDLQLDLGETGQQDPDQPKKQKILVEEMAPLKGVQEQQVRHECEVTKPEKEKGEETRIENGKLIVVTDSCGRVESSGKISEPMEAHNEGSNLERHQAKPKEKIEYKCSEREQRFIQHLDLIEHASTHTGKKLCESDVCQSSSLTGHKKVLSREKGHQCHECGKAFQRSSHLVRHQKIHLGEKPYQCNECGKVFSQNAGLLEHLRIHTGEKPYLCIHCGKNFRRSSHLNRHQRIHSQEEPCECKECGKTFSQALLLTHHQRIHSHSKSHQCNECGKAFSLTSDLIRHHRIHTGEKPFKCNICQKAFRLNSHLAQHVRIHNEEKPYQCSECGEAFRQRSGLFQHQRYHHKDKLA

Tests used:
Assay in all cases: log2 fold change, soluble protein after heating vs DMSO (PISA); higher = thermal stabilisation; K562 cells, 10 uM, 30 min; active = over 0.2 and 3.5 SD of the protein, either way, in both replicates (recomputed)
ZNRD2 [1] = target: ZNRD2 (UniProt G3V1B8)
Procedure, shortened: (§1)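 K562 cells at 2×10^6 cells/mL were treated for 30 min with 10 μM compound, and aliquots were heated for 3 min over 48°C-58°C before pooling. Extraction used PBS with 0.5% NP-40 at 4°C, and soluble protein was the supernatant after 21,000xg for 90 min, measured by TMTpro 16plex LC-MS/MS with channel sums equalised. Thermal stability values, relative to control samples and from duplicates, are log2 fold changes.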

ZNRD2 [2] = target: ZNRD2 (UniProt O60232)
Procedure, shortened: as §1

ZNRF1 isoform 2 = ZNRF1 isoform 2 (UniProt Q8ND25)
Procedure, shortened: as §1

ZNRF2 = ZNRF2 (UniProt Q8NHG8)
Procedure, shortened: as §1

ZPR1 = ZPR1 (UniProt O75312)
Procedure, shortened: as §1

ZRANB2 = ZRANB2 (UniProt O95218)
Procedure, shortened: as §1

ZSWIM7 = ZSWIM7 (UniProt Q19AV6)
Procedure, shortened: as §1

ZW10 = ZW10 (UniProt O43264)
Procedure, shortened: as §1

ZSCAN26 = ZSCAN26 (UniProt Q16670)
Procedure, shortened: as §1

Structure (SMILES) | log2 fold change (ZNRD2 [1]) | log2 fold change (ZNRD2 [2]) | log2 fold change (ZNRF1 isoform 2) | log2 fold change (ZNRF2) | log2 fold change (ZPR1) | log2 fold change (ZRANB2) | log2 fold change (ZSWIM7) | log2 fold change (ZW10) | log2 fold change (ZSCAN26)
CCN(CCCOc1ccc2c(Nc3cc(CC(=O)Nc4cccc(F)c4)[nH]n3)ncnc2c1)CCOP(=O)(O)O [barasertib] | inactive: 0.107 | inactive: 0.027 | inactive: 0.024 | inactive: 0.015 | inactive: 0.036 | inactive: -0.01 | inactive: -0.159 | inactive: 0.055 | –
C#Cc1cccc(Nc2ncnc3cc(OCCOC)c(OCCOC)cc23)c1 [erlotinib] | inactive: 0.153 | inactive: -0.039 | inactive: -0.09 | inactive: 0.052 | inactive: -0.01 | inactive: 0.005 | inactive: 0.02 | inactive: 0.016 | –
O=C1NC(=O)/C(=C\c2ccc3nccnc3c2)S1 | inactive: -0.002 | inactive: 0.086 | inactive: -0.081 | inactive: -0.058 | inactive: 0.017 | inactive: 0.051 | inactive: -0.026 | inactive: -0.009 | –
CC(C)c1cnn2c(NCc3ccccc3)cc(NCCCCCCN)nc12 | inactive: 0.229 | inactive: 0.045 | inactive: 0.018 | inactive: -0.115 | inactive: 0.03 | inactive: 0.014 | inactive: 0.067 | inactive: -0.213 | –
COc1cccc2cc(-c3nc([C@H]4CC[C@H](C(=O)O)CC4)n4ncnc(N)c34)[nH]c12 | inactive: 0.05 | inactive: 0.053 | inactive: -0.184 | inactive: -0.068 | inactive: -0.048 | inactive: -0.01 | – | inactive: -0.051 | –
NC(=O)c1cnc(N[C@@H]2CCCC[C@@H]2N)nc1Nc1cccc(-n2nccn2)c1 | inactive: 0.064 | inactive: 0.037 | inactive: 0.085 | inactive: -0.006 | inactive: -0.024 | inactive: 0.002 | – | inactive: -0.027 | –
C=CC(=O)N1CCC[C@@H](n2nc(-c3ccc(Oc4ccccc4)cc3)c3c(N)ncnc32)C1 [ibrutinib] | inactive: -0.019 | inactive: -0.02 | inactive: -0.245 | inactive: 0.047 | inactive: -0.042 | inactive: 0.013 | inactive: 0.047 | inactive: -0.007 | –
NC1(c2ccc(-c3nc4ccn5c(=O)[nH]nc5c4cc3-c3ccccc3)cc2)CCC1 | inactive: 0.288 | inactive: -0.002 | inactive: 0.112 | inactive: 0.071 | inactive: -0.064 | inactive: 0.046 | – | inactive: -0.141 | –
O=C1NC(=NCc2cccs2)S/C1=C\c1ccc2ncccc2c1 | inactive: 0.152 | inactive: 0.125 | inactive: 0.145 | inactive: 0.004 | inactive: -0.012 | inactive: -0.059 | – | inactive: -0.021 | –
COc1cc(C(=O)O)ccc1NC(=O)[C@@H]1N[C@@H](CC(C)(C)C)[C@](C#N)(c2ccc(Cl)cc2F)[C@H]1c1cccc(Cl)c1F [idasanutlin] | inactive: -0.013 | inactive: -0.005 | inactive: 0.028 | inactive: -0.05 | inactive: -0.016 | inactive: 0.024 | – | inactive: -0.035 | –
CCN(CC)Cc1ccc2cc(COC(=O)Nc3ccc(C(=O)NO)cc3)ccc2c1 [givinostat] | inactive: 0.079 | inactive: -0.068 | inactive: -0.071 | inactive: 0.049 | inactive: 0.009 | inactive: -0.029 | inactive: -0.061 | inactive: 0.096 | –
O=C(Nc1cccc(Nc2ncc(Br)c(NCCc3cnc[nH]3)n2)c1)N1CCCC1 | inactive: -0.024 | inactive: -0.024 | inactive: -0.048 | inactive: -0.213 | inactive: -0.031 | inactive: -0.007 | inactive: -0.215 | inactive: -0.018 | inactive: 0.067
O=C1c2ccccc2-c2n[nH]c3cccc1c23 | inactive: 0.028 | inactive: -0.041 | inactive: -0.099 | inactive: -0.004 | inactive: 0.004 | inactive: -0.059 | – | inactive: -0.031 | –
COc1cc(Nc2ncc3c(n2)-c2ccc(Cl)cc2C(c2c(F)cccc2OC)=NC3)ccc1C(=O)O [alisertib] | inactive: -0.323 | inactive: -0.107 | inactive: 0.069 | inactive: 0.157 | inactive: -0.02 | inactive: -0.058 | – | inactive: 0.031 | –
CC(C)(C)Cn1c(N)nc2ccc(-c3[nH]c(C(C)(C)C)nc3-c3ccc(F)cc3)nc21 [ralimetinib] | inactive: -0.087 | inactive: -0.079 | inactive: 0.043 | inactive: -0.034 | inactive: -0.061 | inactive: -0.014 | – | inactive: 0.032 | –
NC(=O)c1ccc2nc(-c3ccc(Oc4ccc(Cl)cc4)cc3)[nH]c2c1 | inactive: -0.012 | inactive: 0.023 | inactive: 0.087 | inactive: 0.029 | inactive: -0.026 | inactive: -0.015 | inactive: -0.254 | inactive: -0.005 | –
Cc1ccc(C(=O)N(CCCN)[C@@H](c2nc3cc(Cl)ccc3c(=O)n2Cc2ccccc2)C(C)C)cc1 [ispinesib] | inactive: 0.172 | inactive: 0.216 | inactive: -0.008 | inactive: 0.017 | inactive: 0.075 | inactive: 0.005 | – | inactive: -0.179 | –
CN1CCc2c(c3ccccc3n2Cc2ccc(C(=O)NO)cc2)C1 [Tubastatin A] | inactive: 0.064 | inactive: -0.024 | inactive: -0.004 | inactive: 0.018 | inactive: -0.007 | inactive: -0.032 | inactive: -0.032 | inactive: 0.031 | inactive: 0.043
Cc1ccc(NC(=O)c2ccc(CN3CC[C@H](N(C)C)C3)c(C(F)(F)F)c2)cc1Nc1nccc(-c2cncnc2)n1 [bafetinib] | inactive: -0.048 | inactive: -0.015 | inactive: 0.05 | inactive: -0.082 | inactive: -0.06 | inactive: -0.014 | inactive: 0.156 | inactive: 0.003 | –
Cc1ccc2c(=O)c3ccccc3n(CCCN)c2c1C | inactive: 0.099 | inactive: 0.164 | inactive: 0.053 | inactive: 0.011 | inactive: 0.016 | active: -0.399 | inactive: -0.125 | inactive: 0.013 | inactive: -0.505
CNC(=O)c1ccccc1Nc1nc(Nc2ccc(N3CCOCC3)cc2OC)ncc1Cl | inactive: -0.14 | inactive: -0.02 | inactive: -0.054 | inactive: 0.007 | inactive: 0.021 | inactive: 0.002 | inactive: 0.031 | inactive: 0.035 | –
CCCc1cc(C)[nH]c(=O)c1CNC(=O)c1cc(-c2ccnc(N3CCN(C)CC3)c2)cc2c1cnn2C(C)C | inactive: 0.255 | inactive: -0.073 | inactive: 0.036 | inactive: -0.07 | inactive: 0.016 | inactive: 0.028 | – | inactive: 0.072 | –
Cn1cc(-c2ccc3nnc(C(F)(F)c4ccc5ncccc5c4)n3n2)cn1 | inactive: 0.259 | inactive: 0.136 | inactive: -0.166 | inactive: -0.007 | inactive: 0.036 | inactive: 0.036 | – | inactive: -0.069 | –
O=C(O)c1ccc2c(c1)nc(Nc1cccc(Cl)c1)c1ccncc12 [silmitasertib] | inactive: -0.207 | inactive: 0.003 | inactive: -0.009 | inactive: -0.041 | inactive: 0.01 | inactive: 0.018 | – | inactive: 0.083 | –
Oc1cc(-c2nc(-c3ccccc3)[nH]c2-c2ccncc2)ccc1Cl | inactive: 0.068 | inactive: 0.139 | inactive: -0.151 | inactive: -0.018 | inactive: 0 | inactive: -0.073 | – | inactive: -0.034 | –
C/C(=N\NC(=O)c1cccc(S(=O)(=O)N2CCOCC2)c1)c1cc(Cl)ccc1O | inactive: -0.25 | inactive: 0.091 | inactive: 0.089 | inactive: 0.055 | inactive: 0.001 | inactive: -0.067 | – | inactive: 0.075 | –
Cc1ccc(NC(=O)c2cccc(N(C)C)c2)cc1NC(=O)c1ccc(O)cc1 | inactive: -0.175 | inactive: -0.093 | inactive: -0.071 | inactive: 0.024 | inactive: -0.002 | inactive: -0.012 | – | inactive: -0.043 | –
FC(F)(F)c1ccc(/C=C/c2nc(COc3ccc(CCCCn4ccnn4)cc3)co2)cc1 [mubritinib] | inactive: 0.219 | inactive: 0.033 | inactive: 0.036 | inactive: 0.056 | inactive: 0.033 | inactive: -0.02 | – | inactive: 0.028 | –
CC(=O)c1cnc2ccc(-c3cc(Cl)c(O)c(Cl)c3)nc2c1N[C@H]1CC[C@H](CN(C)C)CC1 | inactive: 0.002 | inactive: -0.083 | inactive: -0.28 | inactive: 0 | inactive: 0.005 | inactive: 0.017 | – | inactive: 0.011 | –

2 of the compounds above, tab-delimited:
Structure (SMILES)	log2 fold change (ZNRD2 [1])	log2 fold change (ZNRD2 [2])	log2 fold change (ZNRF1 isoform 2)	log2 fold change (ZNRF2)	log2 fold change (ZPR1)	log2 fold change (ZRANB2)	log2 fold change (ZSWIM7)	log2 fold change (ZW10)	log2 fold change (ZSCAN26)
CC(C)(C)Cn1c(N)nc2ccc(-c3[nH]c(C(C)(C)C)nc3-c3ccc(F)cc3)nc21 [ralimetinib]	inactive: -0.087	inactive: -0.079	inactive: 0.043	inactive: -0.034	inactive: -0.061	inactive: -0.014	–	inactive: 0.032	–
C/C(=N\NC(=O)c1cccc(S(=O)(=O)N2CCOCC2)c1)c1cc(Cl)ccc1O	inactive: -0.25	inactive: 0.091	inactive: 0.089	inactive: 0.055	inactive: 0.001	inactive: -0.067	–	inactive: 0.075	–
